Measurements published in paper PMC7160206.
These are yes or no findings as the source states them, for the method shown. Binding calls can cover weak binding; strength is not graded here. For part of these data: Where a sequence is shown, tags or fusion partners need not be part of it. For part of these data: In cells and extracts the contact can be indirect.

Tests used:
[1] = molecular target: GFP-PIRE (Arabidopsis thaliana); assay: co-IP; Arabidopsis mesophyll protoplasts of the line 35S::PBL13-3xFLAG/pbl13-2 #8-3 transfected with GFP fusions; anti-GFP (GFP-Trap) immunoprecipitation; IP buffer 50 mM Tris-HCl pH 7.5, 150 mM NaCl, 10% glycerol, 2% IGEPAL; 4 °C
[2] = molecular target: PIRE fused to YC (Arabidopsis thaliana); assay: split reporter; BiFC with citrine halves (PBL13-YN, PIRE-YC) in N. benthamiana leaves; 10 μM MG132 infiltrated 24 h before confocal imaging
[3] = molecular target: pTBS1-PIRE C244S/C247S (Arabidopsis thaliana); assay: two-hybrid; LexA system: bait in pTBS1, prey in pJG4-5, yeast EGY48; growth on -UTHL with galactose/raffinose
[4] = molecular target: GST-PIRE (Arabidopsis thaliana); assay: pull-down; purified recombinant proteins: 1 µg GST-PIRE with 3 μg MBP fusion, 4 °C, 2 h, 30 mM HEPES, 180 mM NaCl, 0.2% triton X100; the results call it a GST pull-down, the methods name amylose beads; both purified
[5] = molecular target: PIRE (PBL13 interacting RING domain E3 ligase) on the protein microarray (Arabidopsis thaliana); assay: peptide or protein array; PATH protein microarray with ~5000 Arabidopsis proteins incubated with V5-tagged PBL13; detected with CY5-tagged V5 antibody; probed once; both purified
[6] = molecular target: 3xHA-PIRE (Arabidopsis thaliana); assay: co-IP; transient co-expression in N. benthamiana leaves; GFP-Trap immunoprecipitation of YFP fusions, 4 °C, 2 h; IP buffer 150 mM Tris-HCl pH 7.5, 150 mM NaCl, 10% glycerol, 2% IGEPAL

B1: PBL13-3xFLAG (protein, UniProt F4JZW1 1-494)
chain: MVLCFQDPDNIYSPKKTKKDDGERVITKQKSFLGLSILDISNPSSTTLSEDLSISLAGSDLHVFTQAELRVITQSFSSSNFLGEGGFGPVHKGFIDDKLRPGLKAQPVAVKLLDLDGLQGHREFMTEVMCLGKLKHPNLVKLIGYCCEEAHRLLVYEFMPRGSLESQLFRRCSLPLPWTTRLNIAYEAAKGLQFLHEAEKPIIYRDFKASNILLDSDYTAKLSDFGLAKDGPQGDDTHVSTRVMGTQGYAAPEYIMTGHLTAKSDVYSFGVVLLELLTGRKSVDIARSSRKETLVEWARPMLNDARKLGRIMDPRLEDQYSETGARKAATLAYQCLRYRPKTRPDISTVVSVLQDIKDYKDDIPIGIFTYTVPTKPRREVKETSLQNFDKPRRETKVTSLQNFDKTRREVKDTSLQNFDKTRREVKETSLQNFDKTRREVKETSLQNFDKPRNVSTTDNHQKFRSPAHTARNHRITLRNGYNSPMRNEAGGERY
Question: Which binding [1] does the source give for B1 here?
Answer: binds

B2: PBL13 fused to YN (protein, UniProt F4JZW1 1-494)
chain: B1 chain
Question: How did the binding [2] turn out when B2 was run?
Answer: binds

B3: PBL13 in pJG4-5 (prey) (protein, UniProt F4JZW1 1-494)
chain: B1 chain
Question: B3 was tested. Which binding [3] did it give?
Answer: binds

B4: MBP-PBL13 (protein, UniProt F4JZW1 1-494)
chain: B1 chain
Question: Which binding [4] does the source give for B4 here?
Answer: binds

B5: V5-tagged PBL13 (protein, UniProt F4JZW1 1-494)
chain: B1 chain
Question: For B5, which binding [5] is on record?
Answer: binds

B6: PBL13-3xHA (protein, UniProt F4JZW1 1-494)
chain: B1 chain
Question: B6 was tested. Which binding [6] did it give?
Answer: binds
